Assay results as given in PubChem BioAssay AID504467 (National Center for Advancing Translational Sciences (NCATS), 2011).
About 7,700 (2.3%) of roughly 330,000 compounds were called active. Calls come from the whole dose curve; as a rule, active = well fitted inhibition curve with a large enough effect; inconclusive = small, poorly fitted or top-dose-only effect, or effect the other way; inactive = flat fitted curve, though single readings scatter. Inconclusive means that the source gave no clear call. Potencies beside an inconclusive call are fits to weak or partial responses and may not hold up.
Potency is the fitted concentration of half-maximal effect.

Experiment: qHTS screen for small molecules that inhibit ELG1-dependent DNA repair in human embryonic kidney (HEK293T) cells expressing luciferase-tagged ELG1; note: nearly all actives have a fitted effect of over 55% in size
Settings: HEK293T ELG1-luciferase reporter, luminescence, 16 h, DNA damage induced by 5-fluorouridine; series mostly up to 46.1 µM
Summary of the method: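 Quantitative HTS, concentration-response format. 2,000 cells/well co-treated with 5-fluorouridine and compound, 16 hr in 5% CO2 at 37 °C; ONE-Glo luminescence read after 30 min.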
For `COc1ccc(C(=O)Nc2ccc(/C(C)=N/NC(=O)c3ccncc3)cc2)cc1`, the Potency was inconclusive: 14.6 µM [activator, partial curve, poor fit].
In the case of `Cc1ccc(S(=O)(=O)Oc2ccc(/C=C3/C(=N)N4C(=NC3=O)SN=C4S(C)(=O)=O)cc2)cc1`, the Potency is reported as inconclusive: 16.4 µM [activator, single point].
For `CCCCCCc1c(C)c2ccc(OCC(=O)N[C@@H](Cc3ccccc3)C(=O)O)cc2oc1=O`, the Potency was inconclusive: 0.82 µM [activator, partial curve].
With `CC(c1ccccc1)N1C(=O)c2ccc(C(=O)Nc3ccccc3C(=O)O)cc2C1=O` (centres undefined) the Potency was inconclusive: 20.6 µM [inhibitor, single point].
